The exact form of at least one protein or probe is not confirmed.
Molecular target: phosphorylated RacR (RacR-P), N-His (UniProt O68795)
Assay: EMSA
Conditions: 50 pmol RacR, 25 pmol RacScyto, 2 mM ATP; 20 mM Tris-HCl pH 7.4, 5 mM MgCl2, 100 mM KCl, 100 ug/ml BSA, 1 ug/ml poly(dI-dC), 10% glycerol; 30 min on ice; ~50 fmol DNA; 4% native Tris-glycine gel at 4 C; recombinant protein; protein details: N-His; probe letters rebuilt from the primers and the genome

Sequence	binding result
TTGAAATCGCAAATATAGCTAAATAACGCATTTTACTCCTTTTTAATGATATATAGAATTATTGTAACAAAACTAGGGGTATTGATAAATTTAAAAAATGATATATTTTTATAAAAATATTTAAAATTTTAAAATTTTGTATCAAATATTCTCATTTTATGCATGCTTT (double strand) [ggt promoter -104 fragment]	binds
TTGAAATCGCAAATATAGCTAAATAACGCATTTTACTCCTTTTTAATGATATATAGAATTATTGTAACAAAACTAGGGGTATTGATAAATTTAAAAAATGATATATTTTTATAAAAATATTTAAAATTTTAAAATTTTGTATCAAATATTCTCATTTTATATAATTATTTTTTTATAAAATTACAAAAAGTAACTTTTAAATTTTATACCAAACTTGAGATTTTTTTGCTAAAATATTTAAAATTTATTGAAAGTGCAATGCATGCTTT (double strand) [ggt promoter -204 fragment]	binds

— publication PMC4456614
